{
  "sequences": {"note": "Chains of the proteins cited; added tags and fusions are not shown.", "UniProt Q5IBC5": "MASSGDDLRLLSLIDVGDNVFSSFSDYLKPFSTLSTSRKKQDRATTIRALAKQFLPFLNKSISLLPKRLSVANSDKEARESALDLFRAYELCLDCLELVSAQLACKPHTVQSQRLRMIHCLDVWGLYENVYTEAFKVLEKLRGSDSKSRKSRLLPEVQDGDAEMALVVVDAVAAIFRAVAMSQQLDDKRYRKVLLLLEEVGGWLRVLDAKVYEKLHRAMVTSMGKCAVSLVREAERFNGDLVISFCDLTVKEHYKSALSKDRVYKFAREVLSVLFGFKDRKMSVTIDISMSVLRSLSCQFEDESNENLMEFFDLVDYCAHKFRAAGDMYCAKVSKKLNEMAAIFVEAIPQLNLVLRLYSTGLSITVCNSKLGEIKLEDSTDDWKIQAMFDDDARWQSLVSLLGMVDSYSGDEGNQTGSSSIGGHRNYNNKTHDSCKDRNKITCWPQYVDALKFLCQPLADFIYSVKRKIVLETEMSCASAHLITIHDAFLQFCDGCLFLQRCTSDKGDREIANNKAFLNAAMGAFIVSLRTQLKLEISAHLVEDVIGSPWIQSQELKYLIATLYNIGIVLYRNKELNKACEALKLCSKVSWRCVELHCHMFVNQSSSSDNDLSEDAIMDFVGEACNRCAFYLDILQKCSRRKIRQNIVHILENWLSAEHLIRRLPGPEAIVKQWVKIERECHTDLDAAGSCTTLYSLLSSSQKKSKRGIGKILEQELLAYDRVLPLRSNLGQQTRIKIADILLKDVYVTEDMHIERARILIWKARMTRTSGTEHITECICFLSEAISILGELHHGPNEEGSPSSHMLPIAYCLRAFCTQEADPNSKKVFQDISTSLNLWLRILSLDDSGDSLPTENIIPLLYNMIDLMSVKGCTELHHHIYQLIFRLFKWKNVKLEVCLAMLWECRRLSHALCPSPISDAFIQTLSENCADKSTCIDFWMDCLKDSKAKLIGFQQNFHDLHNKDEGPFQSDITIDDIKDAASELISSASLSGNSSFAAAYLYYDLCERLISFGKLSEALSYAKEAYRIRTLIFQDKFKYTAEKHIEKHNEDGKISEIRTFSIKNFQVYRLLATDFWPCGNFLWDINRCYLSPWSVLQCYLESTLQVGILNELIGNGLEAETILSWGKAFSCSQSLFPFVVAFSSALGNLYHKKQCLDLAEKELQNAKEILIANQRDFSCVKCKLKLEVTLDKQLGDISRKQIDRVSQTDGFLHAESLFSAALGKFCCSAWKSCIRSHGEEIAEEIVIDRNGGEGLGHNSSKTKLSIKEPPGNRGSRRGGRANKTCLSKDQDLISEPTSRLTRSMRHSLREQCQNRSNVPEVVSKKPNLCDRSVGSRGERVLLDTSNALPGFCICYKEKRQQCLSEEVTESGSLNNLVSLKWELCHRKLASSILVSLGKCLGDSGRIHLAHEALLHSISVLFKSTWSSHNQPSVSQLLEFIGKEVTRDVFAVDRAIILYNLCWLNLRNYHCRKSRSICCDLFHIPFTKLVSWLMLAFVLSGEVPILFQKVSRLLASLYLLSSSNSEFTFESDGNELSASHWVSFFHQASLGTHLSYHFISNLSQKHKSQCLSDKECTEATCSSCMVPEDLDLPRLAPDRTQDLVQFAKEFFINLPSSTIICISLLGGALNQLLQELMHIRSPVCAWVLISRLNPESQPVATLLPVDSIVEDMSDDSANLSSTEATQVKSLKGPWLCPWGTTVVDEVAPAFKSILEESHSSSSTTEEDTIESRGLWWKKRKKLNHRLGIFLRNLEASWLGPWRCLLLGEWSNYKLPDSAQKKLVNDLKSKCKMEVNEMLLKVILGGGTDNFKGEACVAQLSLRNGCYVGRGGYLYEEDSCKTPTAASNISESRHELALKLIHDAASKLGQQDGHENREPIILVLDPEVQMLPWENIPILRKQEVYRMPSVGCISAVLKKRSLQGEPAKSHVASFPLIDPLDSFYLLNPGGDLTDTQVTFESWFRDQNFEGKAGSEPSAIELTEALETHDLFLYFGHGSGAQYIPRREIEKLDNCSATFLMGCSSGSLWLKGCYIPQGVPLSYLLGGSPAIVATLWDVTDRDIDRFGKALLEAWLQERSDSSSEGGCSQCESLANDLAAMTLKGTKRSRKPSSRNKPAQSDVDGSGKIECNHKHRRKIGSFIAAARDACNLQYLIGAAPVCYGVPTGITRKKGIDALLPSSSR"},
  "source": "paper doi:10.1101/606285",
  "target": "T1, GS^rhino-tagged PATRONUS1 (PANS1) (Arabidopsis thaliana) (UniProt Q9LJG6)",
  "T1 sequence": "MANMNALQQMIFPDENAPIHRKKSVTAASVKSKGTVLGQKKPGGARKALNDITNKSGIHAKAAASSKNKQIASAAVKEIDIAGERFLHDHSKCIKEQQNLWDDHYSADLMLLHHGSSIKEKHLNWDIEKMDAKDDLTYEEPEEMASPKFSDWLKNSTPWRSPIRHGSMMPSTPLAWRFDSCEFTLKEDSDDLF",
  "experiment": "affinity purification with mass spectrometry",
  "note": "Results are given in words; binding and its absence hold for the method and conditions named. In cells and extracts the contact can be indirect. These calls come from enrichment with a bait or labelling near it, and not all partners need be listed. Where a sequence is shown, tags or fusion partners need not be part of it.",
  "data": [
    {"sequence": "SEPARASE (ESP1) (from UniProt Q5IBC5 1-2180) (enzyme)", "values": [
      {"measurement": "binding", "value": "binds"}
    ]}
  ]
}
